# System: E. coli (CCUG 29300)
# Assay: Endotoxin binding of AMP functionalised crosslinked hydrogel particle dispersion, chromogenic LAL endotoxin assay
# Format: cell-based
# Conditions: 2 μg/ml Ciprofloxacin preparation
# Description: A colony of E. coli (CCUG 29300) was inoculated in Tryptic Soy Broth, TSB. It was cultivated until mid-log (~10^9 CFU/ml). The substances to be tested were prepared and diluted to the correct concentrations. As they were subsequently a 2× concentration of interest was prepared. The aim was for 50×MIC for quite fast activity. For this study 2 ml of each (for 2×50×MIC) of the following were prepared:
# The prepared substances were added to Eppendorf tubes, and 500 μl of PBS was added to each. A solution of 10% TSB, 90% PBS was prepared. 500 μl of the bacterial solution was added to the tubes, except the −bac tube, to prepare a 10^6 CFU/ml concentration. 500 μl of PBS was added to the −bac tube.
# The tubes were vortexed and incubated at 37° C. Each of the samples was removed at desired time intervals (1 hour, 3 hours, and 24 hours).
# The absorbance was read on a plate reader at 545 nm using distilled water as a reference. The endotoxin concentrations were measured using a standard curve from the endotoxin standards.
smiles,measurement,value
O=C(O)c1cn(C2CC2)c2cc(N3CCNCC3)c(F)cc2c1=O [Ciprofloxacin],endotoxin release compared with free AMP or AMP attached to hydrogel,significantly more endotoxin release

# Reference: patent publication US20260242413A1, “ENDOTOXIN NE[…]” (AMFERIA AB, priority 2023, published 2026)
